Experimental data as given in PubChem BioAssay AID2551 (National Center for Advancing Translational Sciences (NCATS), 2010).
The campaign covered roughly 310,000 compounds. About 17,000 (5.5%) were called active. Inconclusive results, whose numbers are uncertain, are shown with a selection of clear calls. The call rests on the fitted dose curve; in most records, active means well fitted inhibition curve with a large enough effect; inconclusive means small, poorly fitted or top-dose-only effect, or effect the other way; inactive means no such curve, though single readings can be large or run the other way. A potency beside an inconclusive call is a rough fit, not a confirmed value.

The chains behind the UniProt entries cited, without tags or fusion partners. Where a name states a change or a piece, a line headed by the entry shows the natural chain unless it says otherwise.
UniProt P51450: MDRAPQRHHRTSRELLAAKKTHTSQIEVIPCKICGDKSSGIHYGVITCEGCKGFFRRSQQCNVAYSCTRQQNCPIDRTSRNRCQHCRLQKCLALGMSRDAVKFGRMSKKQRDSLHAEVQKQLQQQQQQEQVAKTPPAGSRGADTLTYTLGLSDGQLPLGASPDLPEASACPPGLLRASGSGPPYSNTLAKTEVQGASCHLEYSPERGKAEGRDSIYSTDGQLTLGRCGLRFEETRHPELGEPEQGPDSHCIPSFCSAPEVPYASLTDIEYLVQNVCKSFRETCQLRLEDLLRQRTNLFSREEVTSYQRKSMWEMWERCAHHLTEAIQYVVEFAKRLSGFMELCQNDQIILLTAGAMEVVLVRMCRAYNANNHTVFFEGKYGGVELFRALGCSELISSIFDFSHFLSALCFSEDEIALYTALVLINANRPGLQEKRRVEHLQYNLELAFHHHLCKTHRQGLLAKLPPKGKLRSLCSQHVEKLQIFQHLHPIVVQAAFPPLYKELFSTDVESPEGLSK

biological target: Nuclear receptor ROR-gamma (Mus musculus) (UniProt P51450); assay: qHTS for inhibitors of ROR gamma transcriptional activity; conditions: Drosophila S2 Gal4-RORgamma UAS-luciferase reporter, 20 h; activity change, negative = inhibition: at 53.6 µM (top of the series); further: nearly all actives have a fitted effect of over 60% in size
In short: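 Drosophila S2 cells stably expressing Gal4-DBD/mouse RORγ fusion under metallothionein promoter plus UAS-luciferase; compound 1 h, then 700 uM CuSO4 induction for 20 h at ambient temperature; inhibition read as reduced luminescence.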
On the % scale 0 is the no-effect control and ±100 the full control effect; potency means the concentration at half of the fitted maximal effect.

| SMILES | Potency | activity change, negative = inhibition |
| --- | --- | --- |
| Clc1ccc(-c2cnc3n2CCC3)cc1 | active: 17.8 µM | – |
| Cc1ccccc1OCC(=O)Nc1sc2c(c1C#N)CC(C)(C)NC2(C)C | inactive | – |
| Cc1cc(O)c(NC(=O)c2ccc(C)c([N+](=O)[O-])c2)cc1C | inconclusive: 1 µM [activator, full curve, poor fit] | – |
| O=C(Nc1ccc(C(=O)O)cc1)Nc1ccc(F)cc1F | inconclusive: 35.5 µM [inhibitor, single point] | – |
| Cc1cc(OCC(=O)N(C)Cc2ccccc2)ccc1Br | inconclusive: 14.1 µM [activator, single point] | – |
| C=CCn1c(SCC(=O)c2cc(C)n(Cc3cccs3)c2C)nnc1-c1ccncc1 | inconclusive: 22.4 µM [activator, single point] | – |
| Cc1ccc(S(=O)(=O)c2nc(-c3ccccc3Cl)oc2N(C)C)cc1 | inconclusive: 8.91 µM [activator, partial curve] | – |
| O=C1CC(SCc2nc3ccccc3[nH]2)C(=O)N1c1ccc(F)c(Cl)c1 (centres undefined) | inconclusive: 4.47 µM [inhibitor, full curve] | – |
| Cc1ccnc(Nc2nc(-c3ccccc3)cs2)c1 | inconclusive: 12.6 µM [inhibitor, single point] | – |
| O=C(COc1ccccc1)N1c2ccccc2Sc2ccccc21 | inconclusive: 25.1 µM [activator, single point] | – |
| CC(C)CCNC(=O)C12CN(Cc3ccccc3)CC1C(c1ccc([N+](=O)[O-])cc1)=NO2 (centres undefined) | inconclusive: 6.31 µM [inhibitor, single point] | – |
| O=C(COc1ccc(Cl)cc1Cl)Nc1ccc(S(=O)(=O)NC2=NCCCCC2)cc1 | inconclusive: 15.8 µM [activator, single point] | – |
| Cc1onc(-c2c(F)cccc2Cl)c1C(=O)OCC(=O)NC(=O)NCC(C)C | inconclusive: 35.5 µM [activator, single point] | – |
| COc1c2ccccc2nc2occc12 | inconclusive: 22.4 µM [inhibitor, single point] | – |
| N#Cc1ccc(-c2nc3ccccc3c(=O)n2O)cc1 | active: 15.8 µM | – |
| CCS(=O)(=O)Nc1ccc(-c2ccc(NS(=O)(=O)CC)c(OC)c2)cc1OC | inconclusive: 35.5 µM [activator, single point] | – |
| C=CCn1c(SCc2ccc(C#N)cc2)nnc1-c1ccccc1 | inactive | – |
| CCOC(=O)c1ccc(NC(=O)CC2S/C(=N/N=C/c3c[nH]c4ccccc34)NC2=O)cc1 (centres undefined) | inconclusive: 20 µM [activator, single point] | – |
| CCCCC(=O)Nc1cccc(-c2nc3ncccc3o2)c1 | – | inactive: 32.6% [at 10 µM] |
| O=C(CN1CCCC1)Nc1sc2c(c1C(=O)Nc1ccc(Br)cc1)CCC2 | active: 2 µM | – |
| C=CCN(CC=C)C(=S)Nc1ccc(OC)c(OC)c1 | inconclusive: 35.5 µM [inhibitor, single point] | – |
| S=c1[nH]c2cc(Cl)ccc2s1 | active: 12.6 µM | – |
| COc1ccccc1C(=O)NNC(=O)C1CCCO1 (centres undefined) | active: 11.2 µM | – |
| O=C(Nc1ccc(-c2noc(-c3cccs3)n2)cc1)c1cccnc1 | inconclusive: 0.112 µM [activator, full curve, poor fit] | – |
| N/C(=N\OC(=O)C(c1ccccc1)c1ccccc1)c1ccncc1 | inactive | – |

8 entries out of the list, sorted by count of non-hydrogen atoms, smallest number first:

| SMILES | Potency | activity change, negative = inhibition |
| --- | --- | --- |
| S=c1[nH]c2cc(Cl)ccc2s1 | active: 12.6 µM | – |
| Clc1ccc(-c2cnc3n2CCC3)cc1 | active: 17.8 µM | – |
| Cc1cc(OCC(=O)N(C)Cc2ccccc2)ccc1Br | inconclusive: 14.1 µM [activator, single point] | – |
| Cc1cc(O)c(NC(=O)c2ccc(C)c([N+](=O)[O-])c2)cc1C | inconclusive: 1 µM [activator, full curve, poor fit] | – |
| N/C(=N\OC(=O)C(c1ccccc1)c1ccccc1)c1ccncc1 | inactive | – |
| Cc1onc(-c2c(F)cccc2Cl)c1C(=O)OCC(=O)NC(=O)NCC(C)C | inconclusive: 35.5 µM [activator, single point] | – |
| O=C(COc1ccc(Cl)cc1Cl)Nc1ccc(S(=O)(=O)NC2=NCCCCC2)cc1 | inconclusive: 15.8 µM [activator, single point] | – |
| CC(C)CCNC(=O)C12CN(Cc3ccccc3)CC1C(c1ccc([N+](=O)[O-])cc1)=NO2 (centres undefined) | inconclusive: 6.31 µM [inhibitor, single point] | – |

(cont.)

| SMILES | Potency | activity change, negative = inhibition |
| --- | --- | --- |
| COc1cc(C=C2C(=O)c3ccccc3C2=O)ccc1O | inactive | – |
| CCCCCc1ccc(C)cc1O | inactive | – |
| COc1cc(/C=C(\C#N)c2ccccn2)ccc1OCC(=O)Nc1cccc(C(F)(F)F)c1 | inactive | – |
| COc1ccc(NS(=O)(=O)c2ccc(-c3coc(C)n3)cc2)c(OC)c1 | inconclusive: 22.4 µM [activator, single point] | – |
| O=c1[nH]c2ccccc2nc1C(F)(F)F | inactive | – |
| O=C(NC(Cc1c[nH]c2ccccc12)C(=O)N/N=C/c1ccc(Br)cc1)c1cccs1 (centres undefined) | inconclusive: 7.08 µM [activator, partial curve] | – |
| COc1ccc(C(=O)N2c3ccccc3CC2C)cc1OC (centres undefined) | inactive | – |
| CNC(=O)CSc1nnc(-c2ccccn2)n1Cc1ccco1 | inactive | – |
| O=C(Cn1ccc2ccccc2c1=O)NCCC(=O)Nc1cccc(Cl)c1 | inactive | – |
| Cc1onc(-c2ccccc2)c1C(=O)NC(=S)NNC(=O)c1ccc(O)cc1O | inconclusive: 35.5 µM [inhibitor, single point] | – |
| O=C(/C=C/Nc1ccc(F)cc1F)c1cccs1 | active: 1.58 µM | – |
| CCc1cc(-c2n[nH]c(CCC(=O)O)c2-c2nc3ccccc3n2C)c(O)cc1O | inactive | – |
| Cc1ccc2oc(=O)c(/C=C(\O)c3sc(C)nc3C)nc2c1 | inconclusive: 22.4 µM [inhibitor, single point] | – |
| COc1cc(/C=N/Nc2ccccn2)ccc1O | inconclusive: 0.355 µM [activator, partial curve] | – |
| CC(=O)N(CCC(Cc1ccccc1)c1ccc2c(c1)OCO2)Cc1ccc(Cl)cc1 (centres undefined) | inactive | – |
| COc1cc2c(cc1OC)CN(C(=O)CSc1nnc3scc(-c4ccccc4)n13)CC2 | inconclusive: 0.316 µM [activator, full curve] | – |
| Cc1ccc(N/C=C/C(=O)c2ccccc2)cc1Br | inconclusive: 12.6 µM [inhibitor, single point] | – |
| COc1ccc(-c2nnc(-c3cc4ccccc4oc3=O)o2)cc1 | inconclusive: 0.282 µM [activator, full curve] | – |
| Cc1ccc(S(=O)(=O)NCCCC(=O)C=[N+]=[N-])cc1 | inconclusive: 0.562 µM [inhibitor, single point] | – |
| CCCCCC/C=C1\CC(C(=O)OCC)Oc2ccccc21 (centres undefined) (tested in a mixture with another compound) | inactive | – |
| CC1=CC[C@@]23CCCN2C(=O)CCC[C@H]3C1 | inactive | – |
| COc1ccc(/C=N/NC(=O)c2ccoc2C)cc1COc1ccc(Cl)cc1 | active: 7.08 µM | – |
| CCOC(=O)c1ccc(NC(=O)NCCc2ccccc2OC)cc1 | inconclusive: 35.5 µM [inhibitor, single point] | – |
| O=C1CC(Cc2ccc(Br)cc2)C(=O)N1c1ccccc1 (centres undefined) | inactive | – |
